Laboratory results taken from article PMC4579058.
These are yes or no findings as the source states them, for the method shown. Binding seen in cells or lysates may run through a third protein. For some of these results: Tags and fused reporters may be left off the sequences shown.

The chains behind the UniProt entries cited, without tags or fusion partners.
UniProt Q9L9J3: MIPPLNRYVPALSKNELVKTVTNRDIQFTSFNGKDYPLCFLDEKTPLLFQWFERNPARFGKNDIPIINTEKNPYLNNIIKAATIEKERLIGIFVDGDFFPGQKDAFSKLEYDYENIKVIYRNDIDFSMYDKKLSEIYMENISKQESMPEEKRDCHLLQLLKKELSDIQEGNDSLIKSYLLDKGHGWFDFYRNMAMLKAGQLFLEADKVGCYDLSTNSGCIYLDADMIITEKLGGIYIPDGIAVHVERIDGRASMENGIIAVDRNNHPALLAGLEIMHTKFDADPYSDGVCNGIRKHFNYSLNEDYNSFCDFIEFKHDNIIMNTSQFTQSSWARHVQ

T1: Myc-TRIM32 (Mus musculus TRIM32 with an N-terminal Myc epitope tag), non-ubiquitinated form (Mus musculus) (UniProt Q8CH72)
T1 sequence: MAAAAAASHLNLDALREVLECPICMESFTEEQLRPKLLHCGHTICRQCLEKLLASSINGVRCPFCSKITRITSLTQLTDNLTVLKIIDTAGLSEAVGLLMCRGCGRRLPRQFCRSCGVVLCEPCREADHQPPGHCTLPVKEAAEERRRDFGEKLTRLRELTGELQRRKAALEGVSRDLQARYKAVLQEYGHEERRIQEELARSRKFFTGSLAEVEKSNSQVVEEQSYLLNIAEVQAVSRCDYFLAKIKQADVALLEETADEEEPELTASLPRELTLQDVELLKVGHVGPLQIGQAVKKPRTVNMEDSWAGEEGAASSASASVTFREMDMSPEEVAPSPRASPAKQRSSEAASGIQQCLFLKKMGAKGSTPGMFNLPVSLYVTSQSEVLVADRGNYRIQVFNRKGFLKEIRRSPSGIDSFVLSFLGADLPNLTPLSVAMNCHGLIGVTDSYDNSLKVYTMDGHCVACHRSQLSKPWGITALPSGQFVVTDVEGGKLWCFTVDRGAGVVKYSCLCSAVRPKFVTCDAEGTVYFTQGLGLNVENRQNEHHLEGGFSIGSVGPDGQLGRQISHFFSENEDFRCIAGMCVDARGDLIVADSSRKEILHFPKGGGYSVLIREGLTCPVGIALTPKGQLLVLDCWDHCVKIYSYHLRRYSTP

T2: GFP-SseK2 (Salmonella (S. Typhimurium)) (UniProt Q8ZNP4)
T2 sequence: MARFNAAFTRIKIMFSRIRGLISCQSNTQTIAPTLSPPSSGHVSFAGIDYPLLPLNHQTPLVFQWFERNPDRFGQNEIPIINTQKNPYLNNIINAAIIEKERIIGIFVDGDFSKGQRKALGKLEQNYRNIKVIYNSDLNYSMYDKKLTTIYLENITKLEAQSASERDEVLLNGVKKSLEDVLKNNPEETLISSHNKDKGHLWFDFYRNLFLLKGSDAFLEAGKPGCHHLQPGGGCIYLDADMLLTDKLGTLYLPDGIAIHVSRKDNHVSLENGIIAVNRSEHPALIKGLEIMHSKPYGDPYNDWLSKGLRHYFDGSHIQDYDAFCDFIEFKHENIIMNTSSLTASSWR


Experiments:
[1] = biological target: T1, Myc-TRIM32 (Mus musculus TRIM32 with an N-terminal Myc epitope tag), non-ubiquitinated form (Mus musculus); assay: co-IP; A431 cells co-transfected with Myc-TRIM32 and a GFP-SseK; mouse monoclonal anti-Myc antibody with Protein G agarose beads, overnight; anti-GFP immunoblot
[2] = biological target: GFP-SseK1 (Salmonella (S. Typhimurium)) (UniProt Q9L9J3); assay: co-IP; A431 cells transfected with GFP-SseK1, GFP-SseK2 or GFP-SseK3; GFP-nanotrap beads, 1 hr at 4°C; endogenous TRIM32 detected by anti-TRIM32 immunoblot
[3] = biological target: T2, GFP-SseK2 (Salmonella (S. Typhimurium)); assay: as above

| Molecule | binding [1] | binding [2] | binding [3] |
| --- | --- | --- | --- |
| GFP-SseK1 (from UniProt Q9L9J3 1-336) | no binding |  |  |
| TRIM32 (Tripartate Motif 32), endogenous, 72 kDa non-ubiquitinated form (from UniProt Q13049 1-653) |  | no binding | no binding |
| GFP-SseK2 (protein, UniProt Q8ZNP4 1-348) MARFNAAFTRIKIMFSRIRGLISCQSNTQTIAPTLSPPSSGHVSFAGIDYPLLPLNHQTPLVFQWFERNPDRFGQNEIPIINTQKNPYLNNIINAAIIEKERIIGIFVDGDFSKGQRKALGKLEQNYRNIKVIYNSDLNYSMYDKKLTTIYLENITKLEAQSASERDEVLLNGVKKSLEDVLKNNPEETLISSHNKDKGHLWFDFYRNLFLLKGSDAFLEAGKPGCHHLQPGGGCIYLDADMLLTDKLGTLYLPDGIAIHVSRKDNHVSLENGIIAVNRSEHPALIKGLEIMHSKPYGDPYNDWLSKGLRHYFDGSHIQDYDAFCDFIEFKHENIIMNTSSLTASSWR | no binding |  |  |
